For at least one compound, name, drawing or mass did not settle the structure. Where a SMILES comes first, the peptide text is derived from it.
Tested on: hCMEC/d3 (human brain endothelial cells)
Test: Bradykinin-induced permeability in microfluidic BBB culture model
Type: cell-based
Conditions: for permeability coefficient of IRdye 800: no CEE pretreatment, after 30 minutes
Experimental: In an effort to determine the impact/effectiveness of creatinine pronutrient formulations made in accordance with the present disclosure, studies examined bradykinin-induced effects on endothelial permeability using a microfluidic blood-brain barrier (BBB) culture model consisting of hCMEC/d3 (human brain endothelial cells) grown on Mimeta microfluidic plates. More specifically, permeability studies were performed using the microfluidic BBB culture model under control conditions and following exposure to a low dose (10 nM) or high dose (10 μM) of bradykinin in either the presence or absence of creatine ethyl ester hydrochloride (CEE) as the creatinine pronutrient.
hCMEC/d3 cells in Mimeta microfluidic plate were pretreated for 1 hour with media or media+1 mM CEE. Thereafter, the cells were treated with a low concentration (10 nM) or high concentration (10 μM) of bradykinin. The permeability of a fluorescent dye (IRdye 800) was assessed after 30 minutes.

NC(N)=NCCC[C@H](NC(=O)[C@H](Cc1ccccc1)NC(=O)[C@@H]1CCCN1C(=O)[C@H](CO)NC(=O)[C@H](Cc1ccccc1)NC(=O)CNC(=O)[C@@H]1CCCN1C(=O)[C@@H]1CCCN1C(=O)[C@@H](N)CCCN=C(N)N)C(=O)O [bradykinin, Bradykinin] (H-RPPGFSPFR-OH)
permeability of IRdye 800 compared to control (10 nM bradykinin): slight increase
permeability coefficient of IRdye 800 (10 nM bradykinin): 0.0105 ×10⁻⁶ cm/s
increase in permeability of IRdye 800 over control group (10 μM bradykinin): approximately 2 fold
permeability coefficient of IRdye 800 (10 μM bradykinin): 0.029 ×10⁻⁶ cm/s
